Results reported in patent US20060122588A1, “Cryosurgery compositions and methods” (Regents of the University of Minnesota, priority 2002, published 2006).

Tested on: AT-1 rat prostate tumor cells
Assay: Post-thaw viability of AT-1 cell suspensions in various media on the directional solidification stage (Hoechst/Propidium Iodide membrane integrity assay)
Type: cell-based
Settings: at about −10° C.
Experimental: In freezing experiments with cell suspensions, a half eutectic concentration solution was mixed with cell culture media (Dulbecco's Modified Eagle's Medium/F-12) in 1 (salt solution): 2 (culture media) volume ratio.
AT-1 rat prostate tumor cells were cultured in vitro under standard tissue culture conditions, as are known. AT-1 cells were suspended in each eutectic changing solution, and kept at about 4° C.
Cultured AT-1 cells were separated from a culture flask by immersion in 0.05% (by volume) trypsin and 0.53 mM EDTA, and then suspended in 5% (by volume) fetal bovine serum (FBS)-supplemented medium such that the final trypsin concentration was <0.005% (by volume). After the separation, the cells were pelleted by centrifugation and the excess medium was removed. […]
Post-thaw viabilities of AT-1 cell suspensions in various media were assessed for varying end temperature of the freezing and thawing protocol on the directional solidification stage. […]
The concentrations of these solutions were determined so that the use of these solutions would not result in excessive killing of the AT-1 cells due to high osmotic pressure. […]
Viability of the AT-1 cell suspensions was measured by a membrane integrity assay using Hoechst and Propidium Iodide. […] After incubation, viability was assessed under a fluorescent microscope by scoring more than 200 cells for each sample.

[Cl-].[K+] [KCl, potassium chloride]
eutectic solidification of the AT-1 cell suspension: does not

O=[N+]([O-])[O-].[K+] [KNO3, potassium nitrate]
eutectic solidification of the AT-1 cell suspension: experiences eutectic solidification
